Experimental findings from patent US20210079102A1 (DRAGONFLY THERAPEUTICS, published 2021) are described below.

Chains of the proteins cited; added tags and fusions are not shown. Residues count along the entry.
UniProt P20138, residues 18-364: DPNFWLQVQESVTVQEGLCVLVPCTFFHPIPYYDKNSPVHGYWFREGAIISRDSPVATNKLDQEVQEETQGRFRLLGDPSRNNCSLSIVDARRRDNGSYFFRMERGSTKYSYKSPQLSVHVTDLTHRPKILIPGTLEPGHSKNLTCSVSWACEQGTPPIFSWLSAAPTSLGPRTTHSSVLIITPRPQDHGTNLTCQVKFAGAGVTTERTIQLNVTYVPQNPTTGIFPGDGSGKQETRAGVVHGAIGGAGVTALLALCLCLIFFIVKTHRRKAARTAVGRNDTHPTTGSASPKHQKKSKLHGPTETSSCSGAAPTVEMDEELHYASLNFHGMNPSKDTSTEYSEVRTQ

Results are given in words; binding and its absence hold for the method and conditions named. Some binding calls cover weakened binding; strength is not graded here.

In assay [1] the target is T1, CD33 expressed on MV4-11 human AML cells (human, UniProt P20138 18-364).
T1 construct: whole, on cells; also called cell-expressed CD33
In words: flow cytometry on MV4-11 cells, FOB of MFI. The method, then:
Human AML cell line MV4-11 expressing CD33 was used to assay the binding of TriNKETs to the tumor associated antigen. TriNKETs and the parental anti-CD33 monoclonal antibody were incubated with the cells, and the binding was detected using fluorophore-conjugated anti-human IgG secondary antibodies. Cells were analyzed by flow cytometry, and fold-over-background (FOB) was calculated using the mean fluorescence intensity (MFI) from TriNKETs and the parental monoclonal anti-CD33 antibody normalized to secondary antibody controls.

Assay [2] has as its target T1, CD33 expressed on MV4-11 human AML cells. In words: flow cytometry on MV4-11 cells at 20 ug/mL, fold over background. (In flow cytometry, cells or beads pass a laser one at a time.)

B1: CD33-TriNKET-F04 (ADI-29404 and a CD33-binding domain) (bispecific antibody, V domains shown)
VH 1: QVQLQQWGAGLLKPSETLSLTCAVYGGSFSGYYWSWIRQPPGKGLEWIGEIDHSGSTNYNPSLKSRVTISVDTSKNQFSLKLSSVTAADTAVYYCARARGPWSFDPWGQGTLVTVSS
VL 1: DIQMTQSPSTLSASVGDRVTITCRASQSISSWLAWYQQKPGKAPKLLIYKASSLESGVPSRFSGSGSGTEFTLTISSLQPDDFATYYCEQYDSYPTFGGGTKVEIK
VH 2: QVQLVQSGAEVKKPGASVKVSCKASGYTFTDYVVHWVRQAPGQGLEWMGYINPYNDGTKYNEKFKGRVTMTRDTSISTAYMELSRLRSDDTAVYYCARDYRYEVYGMDYWGQGTLVTVSS
VL 2: DIVLTQSPASLAVSPGQRATITCTASSSVNYIHWYQQKPGQPPKLLIYDTSKVASGVPARFSGSGSGTDFTLTINPVEANDTANYYCQQWRSYPLTFGQGTKLEIK
For the molecule B1, the binding entry in assay [1] and in assay [2] was “binds” in each case.
